Earlier results in US20250017853A1, “NANOSUSPENSION CONTAINING PROGERININ, AND PREPARATION METHOD THEREFOR” (PRG S&Tech Inc., priority 2021, published 2025).
The name of at least one read-out is uncertain.

Details: BCS criteria; cited from earlier work

Structure (SMILES): CC1(C)Oc2cc3oc(=O)ccc3cc2C[C@@H]1OC/C=C/c1ccccc1 [progerinin, (7S)-(+)-8,8-dimethyl-7-(3-phenylallyloxy)-7,8-dihydro-6H-pyrano [3,2-g]chromen-2-one]
- apparent permeability: high apparent permeability
